Test results: PubChem BioAssay AID463183 (Sanford-Burnham Center for Chemical Genomics, 2010)
The list shows a part of the results. Shown are side measurements of this screen, not its main read-out; they come without a call. Compounds called inactive in the main read-out are mostly missing here.

Assay: blockers of oleate-driven lipid droplets in liver cells – imaging, AML12 mouse hepatocytes, single concentration, high-content, confirmation (AID 463183);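 note: cells counted after overnight compound exposure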
Conditions: BODIPY lipid droplet imaging, measured here: cell count, cytotoxicity, at 5.2 µM, droplets induced with 100 µM oleic acid
Work on OCCCNc1cc(-c2ccnc(Nc3cccc(Cl)c3)n2)ccn1 yielded a cell count of 598 cells. For CCc1cccc(NC(=O)CCCn2nc(CC)n3c(cc4occc43)c2=O)c1, the cell count was 1700 cells. With N#C/C(=C\c1ccc(-c2ccccc2[N+](=O)[O-])o1)C(=O)Nc1nc(-c2cccs2)cs1 the cell count was 1630 cells. Work on CCOc1ccc(CCNC(=O)c2ccc3ccccc3n2)cc1OCC yielded a cell count of 1630 cells. For COc1ccc(C(C(=O)NC(C)(C)C)N(CC2CCCO2)C(=O)CCC(=O)Nc2cc(C)on2)cc1 (centres undefined), the cell count was 1680 cells. CCC(C)(C)NC(=O)C(c1sccc1C)N(Cc1ccco1)C(=O)c1csnn1 (centres undefined) gave a cell count of 1630 cells. CCOc1ccc(CCNC(=O)CN2C(=O)NC3(CCCC3)C2=O)cc1OCC gave a cell count of 1560 cells. CCCc1cc(N2CCCC2)n2nc(C)c(-c3ccccc3)c2n1 gave a cell count of 1470 cells. For C=CCN1C(=O)c2ccccc2Sc2ccc(C(=O)NCC(OC)OC)cc21, the cell count was 1630 cells. CCOc1ccc(CCNC(=O)CSc2cc(=O)n(C)c3ccccc23)cc1OCC showed a cell count of 1550 cells. Compound CCOC(=O)N1CCN(C(=O)CSCC(=O)Nc2nc(-c3cccs3)cs2)CC1 has a cell count of 1550 cells. Work on Cc1cccc(Nc2ncnc3ccccc23)c1 yielded a cell count of 963 cells. For COc1ccc(C(C(=O)NC(C)(C)C)N(Cc2ccc(C)cc2)C(=O)CCC(=O)Nc2cc(C)on2)cc1 (centres undefined), the cell count was 1660 cells. In the case of Cc1[nH]n(-c2ccccc2)c(=O)c1N=Nc1ccc(Cl)cc1, the cell count is reported as 1430 cells. In the case of Cc1cc(C(c2ccc(O)cc2)c2cc(C)c(O)cc2C)c(C)cc1O, the cell count is reported as 1630 cells. In the case of CCOc1ccc(CCNC(=O)CCNC(=O)c2ccccc2Cl)cc1OCC, the cell count is reported as 1530 cells. In the case of CCN(CC)S(=O)(=O)c1cc(NC(=O)C(C)OC(=O)c2[nH]c(C)c(C(C)=O)c2C)ccc1C (centres undefined), the cell count is reported as 1530 cells. Cc1cccc(Oc2ccc(Cl)cc2N)c1 showed a cell count of 1600 cells. O=C(Cc1ccccc1)Nn1c(-c2ccccc2)nc2ccccc2c1=O showed a cell count of 1600 cells. CCOc1ccc(CCNC(=O)CCC(=O)N2CCSc3ccccc32)cc1OCC gave a cell count of 1640 cells. With Cc1cc(C)cc(NC(=O)N2CCC(C(=O)c3ccc(F)cc3)CC2)c1 the cell count was 1520 cells. With CC1=C/C(=N\Nc2ccccc2[N+](=O)[O-])CC(C)(C)C1 the cell count was 1590 cells. In the case of COc1ccc(C)cc1NC(=O)CCNS(=O)(=O)c1cccc(C(F)(F)F)c1, the cell count is reported as 1530 cells. With CCOc1ccc(CCNC(=O)Nc2ccccc2C)cc1OCC the cell count was 1540 cells. With COc1nc(C)nc2c1ccc1ccccc12 the cell count was 1560 cells. With Cc1ccc(-c2nnc(OCc3cccnc3)c3ccccc23)cc1 the cell count was 1520 cells. Compound CCc1ccc(OCC(=O)N/N=C(\C)c2ccc(-n3ccnc3)cc2)cc1 has a cell count of 1580 cells. Work on CCc1ccc(NC(=O)CSc2nnc(C)c(=O)n2N)cc1 yielded a cell count of 1490 cells. Work on CCOc1ccc(CCNC(=O)CSCc2ccc(C)cc2)cc1OCC yielded a cell count of 1580 cells. In the case of COc1c(C)cc(Br)cc1C(=O)Nc1cccc(NC(=O)c2ccco2)c1, the cell count is reported as 1640 cells. CCOc1ccc(CCNC(=O)Cn2cccc2C(=O)c2ccccc2)cc1OCC showed a cell count of 1570 cells. With Cc1cccc(C(C(=O)NC2CCCC2)N(C(=O)c2csnn2)C2CCCC2)c1 (centres undefined) the cell count was 1570 cells. CCCCCCn1c(SCC(=O)Nc2cc(C)on2)nc2ccccc2c1=O showed a cell count of 1590 cells. Compound CN(C)/C=N/n1cnc2ccccc2c1=O has a cell count of 1630 cells. With CCOC(=O)C1CCC(CN(Cc2ccccc2)S(=O)(=O)c2ccc([N+](=O)[O-])cc2)CC1 (centres undefined) the cell count was 1650 cells. Compound CCOc1ccccc1NC(=O)c1cccc(NC(=O)C2CCCC2)c1 has a cell count of 1640 cells. CCC1(c2ccccc2)NC(=O)N(CC(=O)N(C)Cc2c(F)cccc2Cl)C1=O (centres undefined) gave a cell count of 1670 cells. With COc1ccc(-c2csc(NC(=O)c3ccc(OCC(=O)N4CCOCC4)c(OC)c3)n2)cc1 the cell count was 1520 cells. c1cc2c3c(cccc3c1)NC1(CCC3(CC1)Nc1cccc4cccc(c14)N3)N2 showed a cell count of 1480 cells.
